According to patent publication US20210388105A1:
These are yes or no findings as the source states them, for the method shown. Some entries that bind do so weakly or less than the wild type.

Protein sequences, listed by entry. Tags and fused reporters are not part of them. Lines headed by an entry give the natural chain unless they say otherwise; changes in a name come on top.
UniProt P49961: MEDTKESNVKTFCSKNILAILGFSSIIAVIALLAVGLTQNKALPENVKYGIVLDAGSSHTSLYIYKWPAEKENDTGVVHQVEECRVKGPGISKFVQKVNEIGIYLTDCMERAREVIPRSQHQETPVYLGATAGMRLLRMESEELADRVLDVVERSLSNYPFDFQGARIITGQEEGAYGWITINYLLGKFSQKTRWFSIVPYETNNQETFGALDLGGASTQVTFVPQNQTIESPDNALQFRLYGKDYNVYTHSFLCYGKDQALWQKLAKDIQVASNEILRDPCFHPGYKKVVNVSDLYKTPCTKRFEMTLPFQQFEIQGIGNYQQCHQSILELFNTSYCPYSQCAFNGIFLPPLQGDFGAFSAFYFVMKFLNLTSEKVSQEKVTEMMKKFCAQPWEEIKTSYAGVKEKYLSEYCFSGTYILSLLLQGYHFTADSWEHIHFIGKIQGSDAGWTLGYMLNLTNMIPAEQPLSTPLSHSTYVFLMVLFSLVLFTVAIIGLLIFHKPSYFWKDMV

Key:
[1] = molecular target: cynomolgus CD39 (full length, on CHOK1-cynoCD39 cells) (cynomolgus monkey); assay: FACS
[2] = molecular target: human CD39 (protein; form not stated) (human) (UniProt P49961); assay: ELISA, coated ENTPD1 protein
[3] = molecular target: human CD39 (protein; form not stated) (human) (UniProt P49961); assay: ELISA on coated ENTPD1 (CD39) protein, anti-hIgG-HRP, OD450
[4] = molecular target: cynomolgus CD39 (full length, on CHOK1-cynoCD39 cells) (cynomolgus monkey); assay: FACS on CHO-k1/Cyno CD39 cells, MFI [Continued) D]

Binder	binding [1]	binding [2]	binding [3]	binding [4]
mAb13 (antibody, V domains shown) VH: QIQLVQSGPELKKPGETVKISCKASGYTFTNYGMNWVKQAPGKGLRWMGLINTYTGEPTYADDFKDRFAFSLETSASTAFLQINNLKDEDMATYFCARKGIYYDYVWFFDVWGAGTTVTVSS VL: DIQMTQSPSSLSTSLGGKVSITCKASQDINRYIAWYQHKPGKGPRLLIHYTSTLLPGIPSRFSGSGSGRDYSFSISNLEPEDIATYFCLQYSNLLTFGGGTKLEIK	binds			
hu23.H5L5 (antibody, V domains shown) VH: QVQLVQSGAEVKKPGASVKVSCKASGYNLKDTFLHWVRQAPGQGLEWMGRIDPANGNIKYDPKFQGRVTITADTSANTAYMELISLRSEDTAVYYCANSPYYYGSGYRIFDVWGQGTTVTVSS VL: QIVLTQSPATLSLSPGERATLSCSAFSSVNYMHWYQQKPGQAPRLLIYTTSNLASGIPTRFSGSGSGTSYTLTISSLEPEDFAVYYCQQRSTYPFTFGQGTKLEIK	binds	binds	binds	binds
mAb14 (antibody, V domains shown) VH: EVKLEESGGGLVQPGGSMKLSCVASGFTFSKYWMNWVRQSPEKGLEWVAEIRLKSNKYGTHYAESVKGRFTISRDDSKNNVYLQMNNLRPEDTGIYYCTTQLDLYWFFDVWGAGTTVTVSS VL: DIVMTQSPAILSVTPGDRVSLSCRASQSISDYLHWYQQKSHESPRLLIKYASQSISGIPSRFSGSGSGSNFTLSINSVEPEDVGVYFCQNGHSLPLTFGAGTKLELR	binds			

Next, values leading:

binding [1]	binding [2]	binding [3]	binding [4]	Binder
binds				mAb35 (antibody, V domains shown) VH: EVRLQQSGAELVKPGASVKLSCTASGFNIEDTYVHWMKQRPEQGLEWIGRIDPAIDNSKYDPKFQGKATITAVSSSNTAYLQLSSLTSEDTAVYYCALYDGYNVYAMDYWGQGTSVTVSS VL: DIVMTQAAFSNPVTLGTSASISCRSSKNLLHSNGITYLYWYLQRPGQSPQLLIYRASTLASGVPNRFSGSESGTDFTLRISRVEAEDVGVYYCAQLLELPHTFGGGTKLEIK
binds				mAb23 (antibody, V domains shown) VH: EVQLQQSGAELLRPGASVKLSCTASGYNLKDTFLHWVKQRPEQGLEWIGRIDPANGNIKYDPKFQGKATLTADTSSNTAYLQLISLTSEDTAVYYCANSPYYYGSGYRIFDVWGAGTTVTVSS VL: QIVLTQSPAIMSASPGEKVTITCSAFSSVNYMHWYQQKPGTSPKLLIYTTSNLASGVPTRFSGSGSGTSYSLTISRMEAEDAATYYCQQRSTYPFTFGSGTKLEIQ
binds				mAb34 (antibody, V domains shown) VH: EIQVQQSGPELVKPGASVKVSCKASGYSFTDYNMYWVKQSHGKSLEWIGFIDPYNGYTSYNQKFKGKATLTIDKSSSTAFMHLNSLTSEDSAVYYCAIYGYDDAYYFDYWGQGTTLTVSS VL: QIVLTQSPAIMSASPGEKVTITCSATSSVSYMHWFRQKPGTSPKLWIYSTSNLASGVPARFSGSGSGTSYSLTISRMAAEDAATYYCQQRITYPFTFGSGTKLEIT
